The source of these data is article PMC8816936.

Amino acid sequences for entries named in this document (tags omitted).
UniProt Q07817: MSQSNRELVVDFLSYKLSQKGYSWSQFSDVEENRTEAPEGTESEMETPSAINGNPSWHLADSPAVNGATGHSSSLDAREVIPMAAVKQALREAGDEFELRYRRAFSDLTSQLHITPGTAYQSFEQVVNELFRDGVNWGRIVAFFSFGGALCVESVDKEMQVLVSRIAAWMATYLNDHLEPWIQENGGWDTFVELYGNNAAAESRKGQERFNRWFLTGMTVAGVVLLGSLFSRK
UniProt O60260: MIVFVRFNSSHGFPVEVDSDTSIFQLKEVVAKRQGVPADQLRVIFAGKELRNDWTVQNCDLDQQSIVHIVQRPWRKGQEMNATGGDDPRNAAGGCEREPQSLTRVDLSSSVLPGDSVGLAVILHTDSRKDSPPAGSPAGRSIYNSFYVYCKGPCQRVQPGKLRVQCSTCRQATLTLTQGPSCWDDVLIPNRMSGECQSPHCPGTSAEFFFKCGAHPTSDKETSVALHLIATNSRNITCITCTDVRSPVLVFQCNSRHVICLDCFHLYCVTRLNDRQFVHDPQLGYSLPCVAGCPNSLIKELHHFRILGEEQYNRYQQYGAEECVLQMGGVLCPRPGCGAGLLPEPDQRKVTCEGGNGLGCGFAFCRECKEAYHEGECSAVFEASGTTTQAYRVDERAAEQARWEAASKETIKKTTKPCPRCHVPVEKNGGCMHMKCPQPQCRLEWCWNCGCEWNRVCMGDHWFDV

The assay deals with Bcl-xL (human (endogenous in human cancer cell lines)) (UniProt Q07817). The assay can be described thus: co-IP; lysates of various cancer cell lines in RIPA lysis buffer with 10 mM N-ethylmaleimide and 1 mM PMSF, sonicated; 1 ug anti-Bcl-xL antibody overnight at 4 °C, Protein G agarose beads 2 h at 4 °C; western blot; control conditions.

These are yes or no findings as the source states them, for the method shown. Binding seen in cells or lysates may run through a third protein. Some results given as binding are weak or reduced against the parent protein; the word gives no strength.

Turning to “Parkin (from UniProt O60260 1-465) (enzyme)”, the binding entry was “binds”.
